Assay results as given in PubChem BioAssay AID587 (National Center for Advancing Translational Sciences (NCATS), 2007).
Among all 59,000 compounds or so, about 35 (0.06%) were called active. The shares of active, inactive and inconclusive entries below differ from those in the screen. No stated cut-off is given here; in the data, active means max dye-equivalent concentration above about 10 nM; inconclusive means between about 1.1 nM and that limit; inactive means weaker than that.

Assay: qHTS Assay for Spectroscopic Profiling in Texas Red Spectral Region
Conditions: Compound fluorescence, Texas Red channel, 547/618 nm; stronger effect = higher value
How it was run: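 Compound titrations in 100 mM Tris pH 8.0 were incubated 15 min at room temperature and read at 547 nm excitation / 618 nm emission. Texas Red six-point standard curve on each plate converted fluorescence to dye-equivalent concentration.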
In the case of COc1ccc(OC)c(NC(=O)c2cc3sccc3n2C)c1, the max dye-equivalent concentration is reported as inconclusive: 1.5 nM.
With CCOC(=O)c1sc(SCC(=O)Nc2ccc(N(C)C)cc2)nc1N the max dye-equivalent concentration was “inactive”.
For O=C(Nc1ccc(Br)cn1)c1ccc2nccnc2c1, the max dye-equivalent concentration was inconclusive: 1.8 nM.
In the case of Cc1cc(C)nc(NC(=NCCc2c[nH]c3ccccc23)NC(=O)c2ccco2)n1, the max dye-equivalent concentration is reported as inconclusive: 1.4 nM.
In the case of COc1ccc(CNc2cc(C)nc3ncnn23)c(OC)c1, the max dye-equivalent concentration is reported as inconclusive: 2.3 nM.
With O=C(NCC(=O)N(Cc1cccs1)C(C(=O)NC1CCCC1)c1ccncc1)c1ccco1 (stereo unspecified) the max dye-equivalent concentration was inconclusive: 1.4 nM.
With O=C(NCCC1=CCCCC1)C1CCN(S(=O)(=O)c2cccs2)CC1 the max dye-equivalent concentration was inconclusive: 2.7 nM.
For O=C(Cn1cc(C(=O)COc2ccccc2)c2ccccc21)NCc1ccco1, the max dye-equivalent concentration was “inactive”.
With COC(=O)c1cccc(NC(=O)Cn2cnc3ccccc3c2=O)c1 the max dye-equivalent concentration was inconclusive: 1.4 nM.
In the case of CCN1CCN(C(=O)C2c3cc(OC)c(OC)cc3C(=O)N(C)C2c2ccc(SC)cc2)CC1 (stereo unspecified), the max dye-equivalent concentration is reported as inconclusive: 1.6 nM.
For COc1ccc(Cc2nn3c(-c4cc(OC)c(OC)c(OC)c4)nnc3s2)cc1, the max dye-equivalent concentration was inconclusive: 1.4 nM.
For C=CCn1c(Cc2cccs2)nnc1SCC(=O)Nc1cccc(OC)c1, the max dye-equivalent concentration was inconclusive: 1.9 nM.
With CC(C)OCC(O)Cn1c(N2CCCC2)nc2c1c(=O)[nH]c(=O)n2C (stereo unspecified) the max dye-equivalent concentration was inconclusive: 1.8 nM.
In the case of CC(C)(C)c1nc2ccccc2c2nnc(SCC(=O)NCc3ccco3)n12, the max dye-equivalent concentration is reported as “inactive”.
With O=c1[nH]c2ccccc2n1CCCSCCCn1c(=O)[nH]c2ccccc21 the max dye-equivalent concentration was inconclusive: 1.1 nM.
With COC(=O)COc1ccc(C(=O)OC)cc1 the max dye-equivalent concentration was inconclusive: 2.1 nM.
For CCN(CC)c1nc2ccccc2nc1C(C#N)C(=O)NCCc1ccccc1 (stereo unspecified), the max dye-equivalent concentration was inconclusive: 1.3 nM.
In the case of COCc1cc(C)c(C#N)c(=S)[nH]1, the max dye-equivalent concentration is reported as inconclusive: 1.2 nM.
For O=C(OCc1c(Cl)cccc1Cl)c1ccccn1, the max dye-equivalent concentration was inconclusive: 1.9 nM.
In the case of O=C1c2cccnc2C(=O)N1C1CCCCC1, the max dye-equivalent concentration is reported as inconclusive: 1.1 nM.
In the case of CCOC(=O)C1=C(CN2CCN(c3ccc(F)cc3)CC2)NC(=O)NC1c1cccs1 (stereo unspecified), the max dye-equivalent concentration is reported as inconclusive: 1.4 nM.
In the case of CCCCOc1ccc(C(=O)Nc2ccc(N3CCN(C(C)=O)CC3)cc2)cc1, the max dye-equivalent concentration is reported as inconclusive: 1.3 nM.
With O=C1c2cccc3c(N4CCCCC4)ccc(c23)C(=O)N1c1ccccn1 the max dye-equivalent concentration was “inactive”.
With O=C1c2ccccc2C(=O)N1Cc1ccc2c(c1)OCO2 the max dye-equivalent concentration was inconclusive: 1.1 nM.
For COC(=O)c1sc2nc(-c3ccco3)ccc2c1N, the max dye-equivalent concentration was inconclusive: 1.8 nM.
For COCCN1C(=O)C(O)=C(C(C)=O)C1c1ccc(F)cc1 (stereo unspecified), the max dye-equivalent concentration was inconclusive: 1.6 nM.
For O=C1CCCC2=C1C(c1ccsc1)CC(=O)N2c1ccccc1 (stereo unspecified), the max dye-equivalent concentration was inconclusive: 1.2 nM.
For O=S(=O)(c1ccc2c(c1)OCCO2)N1CCC(c2nc3ccc(Cl)cc3[nH]2)CC1, the max dye-equivalent concentration was inconclusive: 1.5 nM.
With Cc1ccccc1-c1nc(CN2CCC(C(=O)NCC3CCCO3)CC2)c(C)o1 (stereo unspecified) the max dye-equivalent concentration was inconclusive: 1.9 nM.
In the case of COc1ccc(S(=O)(=O)Nc2ccc(F)c(F)c2)cc1Cl, the max dye-equivalent concentration is reported as inconclusive: 1.7 nM.
With CCc1ccc(CCC(=O)Nc2nc(CC(C)=O)ns2)o1 the max dye-equivalent concentration was inconclusive: 1.4 nM.
With CC(=O)O[C@]1(C(C)=O)CC[C@@H]2[C@@H]3C=C(C)C4=CC(=O)CC[C@@]4(C)[C@H]3CC[C@]21C the max dye-equivalent concentration was “inactive”.
With COC(=O)c1ccccc1NC(=O)C1CCN(S(C)(=O)=O)CC1 the max dye-equivalent concentration was inconclusive: 1.6 nM.
For O=C1CC(N(Cc2ccco2)C(=O)Nc2ccc(F)cc2)C(=O)N1c1ccc(F)cc1 (stereo unspecified), the max dye-equivalent concentration was inconclusive: 2.2 nM.
For O=C(c1cc(Br)ccc1O)c1cc(Br)ccc1O, the max dye-equivalent concentration was “inactive”.
With Cc1ccc(S(=O)(=O)NCC(=O)NC2CCCCCC2)cc1 the max dye-equivalent concentration was “inactive”.
For CC(C)c1nc(N2CCOCC2)c(C#N)c2c1COC(C)(C)C2, the max dye-equivalent concentration was “inactive”.
With CCCCOC(=O)CCn1c(=S)oc2ccccc21 the max dye-equivalent concentration was inconclusive: 1.5 nM.
For O=C(COC(=O)c1ccccc1O)Nc1ccc(OC(F)F)cc1, the max dye-equivalent concentration was inconclusive: 1.7 nM.
With COc1ccc(N2CCCn3c2nc2c3c(=O)n(Cc3ccc(F)cc3)c(=O)n2C)c(OC)c1 the max dye-equivalent concentration was inconclusive: 1.3 nM.
For c1ccc(Cn2nnc3c(Nc4ccc5c(c4)OCO5)nc(C4CC4)nc32)cc1, the max dye-equivalent concentration was inconclusive: 1.9 nM.
With O=C(O)c1ccncc1.O=C(O)c1ccncc1.[Cl][Pt]([Cl])([Cl])[Cl] the max dye-equivalent concentration was “inactive”.
In the case of CC(C)(C)c1nnc2sc(SCC(=O)c3cccs3)nn2c1=O, the max dye-equivalent concentration is reported as inconclusive: 1.2 nM.
With O=C(Cc1ccccc1)Nc1ccc(CN2CCOCC2)cc1 the max dye-equivalent concentration was inconclusive: 1.4 nM.
For COc1cc(NCCCC(C)N)c2ncccc2c1 (stereo unspecified), the max dye-equivalent concentration was inconclusive: 1.4 nM.
For Cc1noc(NS(=O)(=O)c2ccc(NC(=O)CSc3nc4ccccc4[nH]3)cc2)c1C, the max dye-equivalent concentration was inconclusive: 2.3 nM.
In the case of CCC(=O)c1cc2c(cc1NC(=O)C(C)C)OCCO2, the max dye-equivalent concentration is reported as inconclusive: 1.1 nM.
With Cn1c(=O)[nH]c(=O)c2c1nc(N1CCCCC1)n2CCOc1ccccc1 the max dye-equivalent concentration was inconclusive: 1.1 nM.
With Nc1nc(N)c2[nH]cnc2n1 (tested in a mixture with another compound) the max dye-equivalent concentration was inconclusive: 1.8 nM.
With O=C(Cc1cn2ccsc2n1)OCc1nc2ccccc2s1 the max dye-equivalent concentration was inconclusive: 1.8 nM.
In the case of CN(C)C(=O)c1ccc(Oc2ccc(C(=O)N(C)C)cc2)cc1, the max dye-equivalent concentration is reported as inconclusive: 1.1 nM.
In the case of Cn1c(=O)c2c(nc(Cc3ccccc3)n2CC(=O)O)n(C)c1=O, the max dye-equivalent concentration is reported as inconclusive: 1.7 nM.
For Cc1cc(Cl)c(S(=O)(=O)NCc2cccnc2)cc1OCC(N)=O, the max dye-equivalent concentration was inconclusive: 1.2 nM.
For O=C(COc1c(F)c(F)cc(F)c1F)NC(=O)NC1CCCC1, the max dye-equivalent concentration was inconclusive: 2 nM.
For CCOc1ccccc1NC(=O)CCCc1nc2ccccc2c(=O)[nH]1, the max dye-equivalent concentration was inconclusive: 3.1 nM.
For Cc1ccccc1Nc1nc(N)nc(CSc2nnnn2-c2ccccc2)n1, the max dye-equivalent concentration was inconclusive: 1.2 nM.
